Among the data in paper doi:10.1101/2022.01.12.476066 are binding values, retold here.

Amino acid sequences for entries named in this document (tags omitted). A change or cut given only in a name is not applied to a line headed by its entry. Residues count along the entry.
UniProt O95398, residues 43-923: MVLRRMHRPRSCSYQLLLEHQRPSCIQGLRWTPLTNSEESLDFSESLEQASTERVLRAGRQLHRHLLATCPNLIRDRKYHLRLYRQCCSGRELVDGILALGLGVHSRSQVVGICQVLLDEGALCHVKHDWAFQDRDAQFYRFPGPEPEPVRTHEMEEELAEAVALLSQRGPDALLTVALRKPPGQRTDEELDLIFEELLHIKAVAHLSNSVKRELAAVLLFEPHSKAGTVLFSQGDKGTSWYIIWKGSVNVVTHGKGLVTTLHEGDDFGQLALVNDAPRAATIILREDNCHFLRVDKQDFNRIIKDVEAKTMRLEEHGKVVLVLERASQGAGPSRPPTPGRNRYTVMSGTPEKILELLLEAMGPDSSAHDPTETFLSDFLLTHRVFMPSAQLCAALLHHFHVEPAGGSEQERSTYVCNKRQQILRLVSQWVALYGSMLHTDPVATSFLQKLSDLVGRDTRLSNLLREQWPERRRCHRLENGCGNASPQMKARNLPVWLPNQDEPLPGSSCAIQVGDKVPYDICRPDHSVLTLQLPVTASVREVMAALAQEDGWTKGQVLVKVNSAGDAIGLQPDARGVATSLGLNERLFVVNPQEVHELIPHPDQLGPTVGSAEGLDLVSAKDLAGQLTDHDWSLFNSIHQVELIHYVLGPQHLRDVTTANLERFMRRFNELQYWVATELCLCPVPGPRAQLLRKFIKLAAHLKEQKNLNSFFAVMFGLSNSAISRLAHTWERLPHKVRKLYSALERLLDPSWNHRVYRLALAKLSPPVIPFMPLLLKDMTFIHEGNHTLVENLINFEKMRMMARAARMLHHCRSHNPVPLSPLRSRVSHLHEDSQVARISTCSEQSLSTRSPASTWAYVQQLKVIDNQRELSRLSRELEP
UniProt O75925: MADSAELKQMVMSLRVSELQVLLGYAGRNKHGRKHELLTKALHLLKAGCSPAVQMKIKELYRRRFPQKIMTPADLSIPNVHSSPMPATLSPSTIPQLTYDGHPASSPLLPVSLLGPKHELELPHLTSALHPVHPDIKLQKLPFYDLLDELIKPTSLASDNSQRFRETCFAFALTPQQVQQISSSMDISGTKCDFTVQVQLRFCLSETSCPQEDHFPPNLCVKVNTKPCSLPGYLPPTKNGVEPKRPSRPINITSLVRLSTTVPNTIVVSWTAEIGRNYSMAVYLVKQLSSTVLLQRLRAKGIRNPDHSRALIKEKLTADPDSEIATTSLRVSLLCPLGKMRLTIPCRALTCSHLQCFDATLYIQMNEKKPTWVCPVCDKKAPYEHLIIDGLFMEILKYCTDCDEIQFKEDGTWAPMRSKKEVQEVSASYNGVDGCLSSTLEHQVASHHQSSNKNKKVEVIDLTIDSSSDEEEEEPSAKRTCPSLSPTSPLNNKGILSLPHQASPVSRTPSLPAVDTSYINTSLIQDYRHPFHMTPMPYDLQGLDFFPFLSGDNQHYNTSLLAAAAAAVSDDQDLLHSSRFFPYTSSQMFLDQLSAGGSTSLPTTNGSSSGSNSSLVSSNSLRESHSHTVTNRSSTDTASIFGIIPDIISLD
UniProt P55854, residues 1-92: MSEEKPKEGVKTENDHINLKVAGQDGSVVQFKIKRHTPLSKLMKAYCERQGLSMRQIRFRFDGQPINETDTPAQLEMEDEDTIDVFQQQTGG
UniProt P07355: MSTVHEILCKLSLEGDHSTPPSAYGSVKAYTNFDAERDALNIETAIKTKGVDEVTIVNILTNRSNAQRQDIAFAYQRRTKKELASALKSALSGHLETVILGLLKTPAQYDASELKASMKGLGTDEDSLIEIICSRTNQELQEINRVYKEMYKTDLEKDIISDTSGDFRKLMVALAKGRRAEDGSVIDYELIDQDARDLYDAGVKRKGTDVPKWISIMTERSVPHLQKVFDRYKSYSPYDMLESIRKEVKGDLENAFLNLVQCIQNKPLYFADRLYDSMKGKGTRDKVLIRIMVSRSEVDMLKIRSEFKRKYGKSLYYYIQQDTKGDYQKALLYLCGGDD
UniProt Q14974: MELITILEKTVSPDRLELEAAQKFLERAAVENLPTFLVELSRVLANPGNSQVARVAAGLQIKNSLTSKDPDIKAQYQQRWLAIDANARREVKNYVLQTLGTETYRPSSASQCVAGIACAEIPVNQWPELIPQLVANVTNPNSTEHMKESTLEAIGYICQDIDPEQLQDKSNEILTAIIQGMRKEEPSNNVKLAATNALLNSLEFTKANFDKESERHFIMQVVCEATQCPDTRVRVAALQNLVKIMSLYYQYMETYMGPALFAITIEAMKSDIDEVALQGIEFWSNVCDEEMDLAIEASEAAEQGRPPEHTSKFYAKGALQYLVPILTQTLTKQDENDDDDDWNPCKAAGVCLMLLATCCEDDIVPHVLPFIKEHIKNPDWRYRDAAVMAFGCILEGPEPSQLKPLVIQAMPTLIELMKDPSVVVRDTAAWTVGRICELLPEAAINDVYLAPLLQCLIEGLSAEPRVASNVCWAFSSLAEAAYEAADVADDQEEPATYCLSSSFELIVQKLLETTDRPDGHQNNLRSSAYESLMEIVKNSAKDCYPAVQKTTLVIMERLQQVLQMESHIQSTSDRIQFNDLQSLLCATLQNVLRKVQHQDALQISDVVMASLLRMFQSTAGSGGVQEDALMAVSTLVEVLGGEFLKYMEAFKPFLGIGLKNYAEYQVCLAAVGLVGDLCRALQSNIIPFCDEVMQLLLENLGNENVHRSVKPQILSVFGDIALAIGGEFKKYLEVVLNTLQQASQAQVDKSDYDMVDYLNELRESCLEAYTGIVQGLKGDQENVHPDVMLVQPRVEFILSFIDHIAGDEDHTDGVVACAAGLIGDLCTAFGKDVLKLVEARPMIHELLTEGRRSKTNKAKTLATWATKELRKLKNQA
UniProt P61956: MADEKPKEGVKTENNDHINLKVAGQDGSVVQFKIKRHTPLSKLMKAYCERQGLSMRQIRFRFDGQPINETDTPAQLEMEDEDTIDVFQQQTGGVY
UniProt P63279: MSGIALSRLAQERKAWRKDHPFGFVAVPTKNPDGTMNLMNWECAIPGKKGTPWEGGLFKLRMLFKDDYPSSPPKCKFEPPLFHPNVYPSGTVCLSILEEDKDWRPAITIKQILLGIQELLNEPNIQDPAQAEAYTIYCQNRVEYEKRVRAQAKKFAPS
UniProt P49792: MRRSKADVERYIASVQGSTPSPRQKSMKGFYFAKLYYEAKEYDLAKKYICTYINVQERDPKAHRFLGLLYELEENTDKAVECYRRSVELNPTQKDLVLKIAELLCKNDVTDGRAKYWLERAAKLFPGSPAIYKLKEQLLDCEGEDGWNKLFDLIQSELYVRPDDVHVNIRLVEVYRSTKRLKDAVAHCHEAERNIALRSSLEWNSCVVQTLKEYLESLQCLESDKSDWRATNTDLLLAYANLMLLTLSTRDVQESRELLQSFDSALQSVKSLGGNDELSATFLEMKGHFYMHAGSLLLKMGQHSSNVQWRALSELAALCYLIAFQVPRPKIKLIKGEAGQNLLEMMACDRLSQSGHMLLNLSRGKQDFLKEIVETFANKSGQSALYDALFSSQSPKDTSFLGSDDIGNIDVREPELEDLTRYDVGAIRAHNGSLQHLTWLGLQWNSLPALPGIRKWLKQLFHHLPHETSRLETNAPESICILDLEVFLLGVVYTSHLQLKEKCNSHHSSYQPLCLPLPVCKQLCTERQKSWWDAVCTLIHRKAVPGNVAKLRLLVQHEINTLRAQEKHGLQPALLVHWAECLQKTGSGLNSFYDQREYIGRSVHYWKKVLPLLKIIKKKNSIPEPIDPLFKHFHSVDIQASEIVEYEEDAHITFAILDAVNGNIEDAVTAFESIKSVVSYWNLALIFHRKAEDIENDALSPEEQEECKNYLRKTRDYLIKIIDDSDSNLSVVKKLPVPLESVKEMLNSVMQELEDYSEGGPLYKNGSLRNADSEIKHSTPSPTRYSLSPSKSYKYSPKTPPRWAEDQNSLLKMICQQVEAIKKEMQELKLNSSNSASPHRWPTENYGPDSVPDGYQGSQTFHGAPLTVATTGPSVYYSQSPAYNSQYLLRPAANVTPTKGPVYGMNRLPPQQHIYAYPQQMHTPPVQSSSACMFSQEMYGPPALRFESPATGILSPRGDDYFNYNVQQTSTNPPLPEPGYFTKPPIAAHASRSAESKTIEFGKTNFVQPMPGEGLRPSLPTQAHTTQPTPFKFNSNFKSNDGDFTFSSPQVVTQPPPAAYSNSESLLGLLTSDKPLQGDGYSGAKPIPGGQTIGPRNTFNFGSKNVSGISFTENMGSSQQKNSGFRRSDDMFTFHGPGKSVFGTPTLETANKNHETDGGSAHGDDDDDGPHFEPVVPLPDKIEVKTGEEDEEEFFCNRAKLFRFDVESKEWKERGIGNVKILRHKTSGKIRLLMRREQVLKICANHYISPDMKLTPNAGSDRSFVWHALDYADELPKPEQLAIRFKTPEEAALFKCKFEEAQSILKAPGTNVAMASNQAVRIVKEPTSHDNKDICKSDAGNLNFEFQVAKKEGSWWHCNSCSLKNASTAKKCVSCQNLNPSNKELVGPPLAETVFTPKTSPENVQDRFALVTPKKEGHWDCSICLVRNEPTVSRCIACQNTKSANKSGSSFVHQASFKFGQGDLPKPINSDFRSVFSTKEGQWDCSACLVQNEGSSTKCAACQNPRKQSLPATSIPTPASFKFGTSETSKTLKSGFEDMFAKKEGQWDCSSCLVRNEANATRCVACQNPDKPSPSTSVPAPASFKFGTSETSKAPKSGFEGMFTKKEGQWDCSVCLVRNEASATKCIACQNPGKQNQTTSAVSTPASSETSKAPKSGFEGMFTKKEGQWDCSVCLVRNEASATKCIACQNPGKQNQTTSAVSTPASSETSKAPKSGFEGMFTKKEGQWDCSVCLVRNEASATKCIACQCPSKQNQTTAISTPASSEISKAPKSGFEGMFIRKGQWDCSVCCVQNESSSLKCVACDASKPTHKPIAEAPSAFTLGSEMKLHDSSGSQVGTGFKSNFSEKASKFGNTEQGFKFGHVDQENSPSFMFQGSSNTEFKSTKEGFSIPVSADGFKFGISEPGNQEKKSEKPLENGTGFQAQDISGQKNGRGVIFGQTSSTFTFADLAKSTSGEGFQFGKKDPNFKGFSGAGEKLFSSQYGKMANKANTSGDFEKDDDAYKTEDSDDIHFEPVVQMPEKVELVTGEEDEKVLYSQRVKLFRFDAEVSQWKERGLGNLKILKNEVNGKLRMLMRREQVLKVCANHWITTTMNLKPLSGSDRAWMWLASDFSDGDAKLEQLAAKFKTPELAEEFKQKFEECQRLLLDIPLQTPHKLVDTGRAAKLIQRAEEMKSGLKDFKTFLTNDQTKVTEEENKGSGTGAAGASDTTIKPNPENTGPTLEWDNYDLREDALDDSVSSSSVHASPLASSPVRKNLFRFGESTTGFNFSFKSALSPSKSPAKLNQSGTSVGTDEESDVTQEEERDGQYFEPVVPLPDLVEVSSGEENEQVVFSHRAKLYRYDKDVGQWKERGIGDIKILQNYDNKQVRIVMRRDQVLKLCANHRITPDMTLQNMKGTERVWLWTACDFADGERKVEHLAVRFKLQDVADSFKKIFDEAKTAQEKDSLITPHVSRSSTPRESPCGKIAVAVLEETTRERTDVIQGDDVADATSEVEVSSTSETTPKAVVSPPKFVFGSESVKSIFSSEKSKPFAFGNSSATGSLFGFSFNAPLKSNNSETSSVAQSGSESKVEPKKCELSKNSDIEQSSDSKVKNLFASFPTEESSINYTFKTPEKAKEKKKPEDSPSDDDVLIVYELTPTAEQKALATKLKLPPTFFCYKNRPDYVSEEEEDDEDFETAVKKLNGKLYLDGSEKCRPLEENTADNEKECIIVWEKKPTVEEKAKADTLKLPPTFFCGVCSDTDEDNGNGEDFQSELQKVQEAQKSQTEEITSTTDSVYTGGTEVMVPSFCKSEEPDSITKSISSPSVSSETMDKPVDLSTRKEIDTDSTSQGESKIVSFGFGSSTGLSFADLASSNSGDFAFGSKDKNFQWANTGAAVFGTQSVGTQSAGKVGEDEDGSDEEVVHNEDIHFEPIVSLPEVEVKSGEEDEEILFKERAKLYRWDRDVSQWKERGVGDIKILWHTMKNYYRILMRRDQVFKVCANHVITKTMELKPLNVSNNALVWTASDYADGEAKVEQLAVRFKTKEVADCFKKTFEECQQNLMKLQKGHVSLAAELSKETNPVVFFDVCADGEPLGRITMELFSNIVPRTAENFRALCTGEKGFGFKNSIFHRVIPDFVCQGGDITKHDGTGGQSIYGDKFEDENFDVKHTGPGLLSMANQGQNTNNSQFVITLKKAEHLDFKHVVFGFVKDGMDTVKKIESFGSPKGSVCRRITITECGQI
UniProt P63165, residues 1-97: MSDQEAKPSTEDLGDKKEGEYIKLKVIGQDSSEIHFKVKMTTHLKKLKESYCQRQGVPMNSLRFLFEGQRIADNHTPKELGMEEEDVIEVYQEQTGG

These are yes or no findings as the source states them, for the method shown. Binding seen in cells or lysates may run through a third protein. These calls come from enrichment with a bait or labelling near it, and not all partners need be listed.

The target of the assay is full-length Epac1 with a C-terminal FLAG/HA tandem epitope tag (human) (UniProt O95398). The assay can be described thus: affinity purification with mass spectrometry.

Regarding PIAS1 (from UniProt O75925 1-651), the binding result is “binds”. The entry for SUMO3 (from UniProt P55854 1-92) is “binds”; for Annexin A2 (from UniProt P07355 1-339) it is “binds”. Importin β1 (from UniProt Q14974 1-876): the binding result is on record as “binds”. The entry for SUMO2 (from UniProt P61956) is “binds”. The same measure for “SUMO-conjugating enzyme E2 (UBC9) (from UniProt P63279 1-158)”: “binds”; for RanBP2 (from UniProt P49792 1-3224): “binds”; for Nup98 (from UniProt P52948 1-880): “binds”. Take SUMO1 (from UniProt P63165 1-97): the binding entry was “binds”.

B1: SART1 (protein, UniProt O43290 1-800)
chain: MGSSKKHRGEKEAAGTTAAAGTGGATEQPPRHREHKKHKHRSGGSGGSGGERRKRSRERGGERGSGRRGAEAEARSSTHGRERSQAEPSERRVKREKRDDGYEAAASSKTSSGDASSLSIEETNKLRAKLGLKPLEVNAIKKEAGTKEEPVTADVINPMALRQREELREKLAAAKEKRLLNQKLGKIKTLGEDDPWLDDTAAWIERSRQLQKEKDLAEKRAKLLEEMDQEFGVSTLVEEEFGQRRQDLYSARDLQGLTVEHAIDSFREGETMILTLKDKGVLQEEEDVLVNVNLVDKERAEKNVELRKKKPDYLPYAEDESVDDLAQQKPRSILSKYDEELEGERPHSFRLEQGGTADGLRERELEEIRAKLRLQAQSLSTVGPRLASEYLTPEEMVTFKKTKRRVKKIRKKEKEVVVRADDLLPLGDQTQDGDFGSRLRGRGRRRVSEVEEEKEPVPQPLPSDDTRVENMDISDEEEGGAPPPGSPQVLEEDEAELELQKQLEKGRRLRQLQQLQQLRDSGEKVVEIVKKLESRQRGWEEDEDPERKGAIVFNATSEFCRTLGEIPTYGLAGNREEQEELMDFERDEERSANGGSESDGEENIGWSTVNLDEEKQQQDFSASSTTILDEEPIVNRGLAAALLLCQNKGLLETTVQKVARVKAPNKSLPSAVYCIEDKMAIDDKYSRREEYRGFTQDFKEKDGYKPDVKIEYVDETGRKLTPKEAFRQLSHRFHGKGSGKMKTERRMKKLDEEALLKKMSSSDTPLGTVALLQEKQKAQKTPYIVLSGSGKSMNANTITK
With B1, the binding result is recorded as “binds”.
